The data set can be described thus: in vivo. The following applies: rat.

Turning to `COCCCc1ccc(Cl)c(CN(C(=O)[C@H]2CNCC[C@@H]2c2ccc(OCCOc3c(Cl)cc(C)cc3Cl)cc2)C2CC2)c1`, the bioavailability stood at 20%.

For the origin of these results see ChEMBL document CHEMBL1268808, “Design and optimization of new piperidines as renin inhibitors” (Bioorg Med Chem Lett, 2010).
